Measurements reported in PubChem BioAssay AID1259254 (NCATS, 2017)
Assay: 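Finding genes that stop cells copying their DNA twice in one cycle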 (primary screen). Cells: human HCT116 colorectal cancer cells. Reagents: single siRNA against human genes. Timing: 3 days. Measured: 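Nuclei stained with Hoechst and imaged; cell-cycle phase assigned by DNA content; G2 share scaled per plate, non-targeting siRNA 0%, GMNN siRNA 100%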. Scale: G2 robust z-score and G2 cells, % of GMNN control: higher = more G2 cells, more excess DNA replication. Active means: 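An siRNA counts as active if its G2 robust z-score lies at least 5 MADs above the screen median; here such calls match roughly 38% of GMNN control or more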.
In all, the deposit lists about 59,000 reagents; this is a part drawn at random. About 1,550 of them (2.6%) count as active. 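G2 share is only a proxy for re-replication; each gene was hit by three separate siRNAs, and active genes were retested.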 Entries without a mark were called inactive. Reagents against one gene are numbered here. Not all columns of the deposit are shown. No sequences are given here. Not stated in the record: the amount of reagent.

PROX2 (GeneID 283571) #1 → G2 robust z-score: 7.42 (active); G2 cells, % of GMNN control: 55.1
PROX2 (GeneID 283571) #2 → G2 robust z-score: 1.26; G2 cells, % of GMNN control: 11.9
PROX2 (GeneID 283571) #3 → G2 robust z-score: 1.04; G2 cells, % of GMNN control: 10.3
MON1A (GeneID 84315) #1 → G2 robust z-score: 0.165; G2 cells, % of GMNN control: 4.13
MON1A (GeneID 84315) #2 → G2 robust z-score: 0.701; G2 cells, % of GMNN control: 7.9
MON1A (GeneID 84315) #3 → G2 robust z-score: -0.189; G2 cells, % of GMNN control: 1.64
FOXK2 (GeneID 3607) #1 → G2 robust z-score: 0.903; G2 cells, % of GMNN control: 9.32
FOXK2 (GeneID 3607) #2 → G2 robust z-score: -0.771; G2 cells, % of GMNN control: -2.46
FOXK2 (GeneID 3607) #3 → G2 robust z-score: -0.433; G2 cells, % of GMNN control: -0.0769
SLC38A11 (GeneID 151258) #1 → G2 robust z-score: -0.691; G2 cells, % of GMNN control: -1.89
SLC38A11 (GeneID 151258) #2 → G2 robust z-score: -0.868; G2 cells, % of GMNN control: -3.14
SLC38A11 (GeneID 151258) #3 → G2 robust z-score: -0.474; G2 cells, % of GMNN control: -0.364
LINC01599 (GeneID 196913) #1 → G2 robust z-score: -0.399; G2 cells, % of GMNN control: 0.162
LINC01599 (GeneID 196913) #2 → G2 robust z-score: -0.371; G2 cells, % of GMNN control: 0.357
LINC01599 (GeneID 196913) #3 → G2 robust z-score: -0.354; G2 cells, % of GMNN control: 0.48
DKK4 (GeneID 27121) #1 → G2 robust z-score: -1.18; G2 cells, % of GMNN control: -5.31
DKK4 (GeneID 27121) #2 → G2 robust z-score: 2.24; G2 cells, % of GMNN control: 18.8
DKK4 (GeneID 27121) #3 → G2 robust z-score: -0.66; G2 cells, % of GMNN control: -1.68

Laid out differently: results already given
| target | reagent no. | G2 robust z-score | G2 cells, % of GMNN control |
| --- | --- | --- | --- |
| LINC01599 (GeneID 196913) | 1 | -0.399 | 0.162 |
| LINC01599 (GeneID 196913) | 2 | -0.371 | 0.357 |
